Like-named read-outs stand apart in the source and are kept apart here. No constants are given. Whether binding was seen depends on the method and setting. Binding seen in cells or lysates may run through a third protein. Some results given as binding are weak or reduced against the parent protein; the word gives no strength. Tags and fused reporters may be left off the sequences shown.
T1: C-terminally 3xFlag-tagged Esrrb (oestrogen-related receptor beta) (mouse) (UniProt Q61539)
T1 sequence: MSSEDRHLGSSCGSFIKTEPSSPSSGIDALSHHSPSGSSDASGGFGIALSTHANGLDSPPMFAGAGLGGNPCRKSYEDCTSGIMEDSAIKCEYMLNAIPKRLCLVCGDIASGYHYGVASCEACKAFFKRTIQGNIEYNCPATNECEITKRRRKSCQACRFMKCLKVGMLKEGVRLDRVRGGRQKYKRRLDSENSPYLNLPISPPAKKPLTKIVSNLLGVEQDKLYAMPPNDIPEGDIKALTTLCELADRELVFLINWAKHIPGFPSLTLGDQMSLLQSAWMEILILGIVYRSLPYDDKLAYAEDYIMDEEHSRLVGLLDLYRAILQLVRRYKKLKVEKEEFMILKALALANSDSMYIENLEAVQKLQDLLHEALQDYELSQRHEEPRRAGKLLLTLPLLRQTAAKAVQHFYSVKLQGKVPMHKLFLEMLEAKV

Protein sequences, listed by entry. Tags and fused reporters are not part of them.
UniProt Q8K114: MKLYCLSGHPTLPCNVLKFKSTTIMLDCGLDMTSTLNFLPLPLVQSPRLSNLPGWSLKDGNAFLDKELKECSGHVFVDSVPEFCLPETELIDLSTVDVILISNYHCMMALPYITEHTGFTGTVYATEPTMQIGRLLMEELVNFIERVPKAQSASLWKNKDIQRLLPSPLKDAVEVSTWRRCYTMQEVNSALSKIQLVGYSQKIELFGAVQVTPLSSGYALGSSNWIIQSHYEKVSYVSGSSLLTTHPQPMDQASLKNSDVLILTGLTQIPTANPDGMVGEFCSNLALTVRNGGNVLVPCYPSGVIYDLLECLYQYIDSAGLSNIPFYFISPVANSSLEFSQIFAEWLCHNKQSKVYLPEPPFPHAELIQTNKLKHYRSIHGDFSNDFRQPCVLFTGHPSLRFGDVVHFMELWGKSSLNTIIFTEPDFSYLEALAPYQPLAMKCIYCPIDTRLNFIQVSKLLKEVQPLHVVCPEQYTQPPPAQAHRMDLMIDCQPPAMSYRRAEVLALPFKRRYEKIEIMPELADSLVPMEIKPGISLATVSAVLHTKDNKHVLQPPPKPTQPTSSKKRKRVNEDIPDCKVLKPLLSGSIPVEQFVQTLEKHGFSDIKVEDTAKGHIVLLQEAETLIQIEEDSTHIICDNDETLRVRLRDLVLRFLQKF
UniProt Q6P4S8: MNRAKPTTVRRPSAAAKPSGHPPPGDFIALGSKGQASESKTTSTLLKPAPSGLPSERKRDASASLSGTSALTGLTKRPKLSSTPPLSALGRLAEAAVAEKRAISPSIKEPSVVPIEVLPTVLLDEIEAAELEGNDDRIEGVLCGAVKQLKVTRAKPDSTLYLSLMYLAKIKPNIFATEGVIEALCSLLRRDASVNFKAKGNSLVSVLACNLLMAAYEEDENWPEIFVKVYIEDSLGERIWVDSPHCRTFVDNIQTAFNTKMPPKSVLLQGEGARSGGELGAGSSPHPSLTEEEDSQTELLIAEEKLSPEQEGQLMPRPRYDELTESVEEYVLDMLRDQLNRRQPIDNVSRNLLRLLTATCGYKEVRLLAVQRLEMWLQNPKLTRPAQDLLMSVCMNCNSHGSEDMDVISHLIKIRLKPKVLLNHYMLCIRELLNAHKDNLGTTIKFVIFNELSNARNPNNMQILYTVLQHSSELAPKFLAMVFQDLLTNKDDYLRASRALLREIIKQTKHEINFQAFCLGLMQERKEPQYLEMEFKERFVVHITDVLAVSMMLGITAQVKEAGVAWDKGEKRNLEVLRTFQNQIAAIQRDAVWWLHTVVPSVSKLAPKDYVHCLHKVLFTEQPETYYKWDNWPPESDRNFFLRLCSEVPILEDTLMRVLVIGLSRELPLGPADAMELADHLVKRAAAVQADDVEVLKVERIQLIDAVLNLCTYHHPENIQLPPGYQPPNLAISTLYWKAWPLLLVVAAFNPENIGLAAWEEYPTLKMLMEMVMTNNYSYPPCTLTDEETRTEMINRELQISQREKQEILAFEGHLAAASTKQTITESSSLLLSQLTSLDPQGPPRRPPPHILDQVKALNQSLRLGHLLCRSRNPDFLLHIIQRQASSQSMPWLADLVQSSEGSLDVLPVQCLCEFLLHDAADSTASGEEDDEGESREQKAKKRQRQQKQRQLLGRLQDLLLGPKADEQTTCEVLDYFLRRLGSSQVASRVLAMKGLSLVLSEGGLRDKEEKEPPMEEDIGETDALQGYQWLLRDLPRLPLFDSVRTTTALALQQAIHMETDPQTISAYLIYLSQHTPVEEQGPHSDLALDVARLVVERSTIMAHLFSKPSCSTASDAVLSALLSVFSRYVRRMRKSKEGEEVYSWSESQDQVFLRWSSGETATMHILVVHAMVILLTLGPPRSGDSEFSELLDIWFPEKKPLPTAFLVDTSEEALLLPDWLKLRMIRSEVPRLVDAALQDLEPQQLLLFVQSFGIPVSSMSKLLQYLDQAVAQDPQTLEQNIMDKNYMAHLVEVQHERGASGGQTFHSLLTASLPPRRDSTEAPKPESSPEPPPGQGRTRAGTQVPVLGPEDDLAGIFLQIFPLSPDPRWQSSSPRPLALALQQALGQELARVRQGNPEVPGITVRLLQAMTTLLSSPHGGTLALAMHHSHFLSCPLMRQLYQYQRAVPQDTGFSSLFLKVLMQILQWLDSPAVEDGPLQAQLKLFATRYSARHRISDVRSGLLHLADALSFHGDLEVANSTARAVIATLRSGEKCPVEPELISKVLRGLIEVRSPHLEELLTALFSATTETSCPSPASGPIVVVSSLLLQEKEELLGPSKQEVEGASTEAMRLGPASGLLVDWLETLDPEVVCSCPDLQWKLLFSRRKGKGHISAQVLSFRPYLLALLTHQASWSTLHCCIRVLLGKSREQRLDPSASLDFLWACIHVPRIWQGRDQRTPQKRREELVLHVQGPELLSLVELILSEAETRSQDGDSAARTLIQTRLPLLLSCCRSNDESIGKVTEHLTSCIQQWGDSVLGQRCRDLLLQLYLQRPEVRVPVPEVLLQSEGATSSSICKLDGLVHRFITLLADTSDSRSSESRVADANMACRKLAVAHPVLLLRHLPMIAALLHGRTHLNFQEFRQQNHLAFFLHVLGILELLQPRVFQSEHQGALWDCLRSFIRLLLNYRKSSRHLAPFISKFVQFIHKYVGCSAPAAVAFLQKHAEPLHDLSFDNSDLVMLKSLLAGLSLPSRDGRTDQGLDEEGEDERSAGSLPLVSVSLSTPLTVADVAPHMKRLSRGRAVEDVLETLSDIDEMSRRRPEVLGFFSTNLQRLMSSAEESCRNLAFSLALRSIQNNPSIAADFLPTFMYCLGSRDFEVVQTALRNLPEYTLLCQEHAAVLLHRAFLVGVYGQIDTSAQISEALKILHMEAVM


What was measured:
[1] = molecular target: T1, C-terminally 3xFlag-tagged Esrrb (oestrogen-related receptor beta) (mouse); assay: co-IP; anti-FLAG M2 agarose IP of Esrrb-3xFlag from TS cell nuclear extract (buffer D, 3 h at 4 °C with Benzonase, FLAG-tripeptide elution), western blot of the eluate
[2] = molecular target: T1, C-terminally 3xFlag-tagged Esrrb (oestrogen-related receptor beta) (mouse); assay: as above; remark: listed apart in the source

binding [1] | binding [2] | Molecule
binds | – | Integrator complex subunit 9 (from UniProt Q8K114 1-658)
binds | – | Integrator1 (Ints1) (from UniProt Q6P4S8 1-2195)
– | binds | Nuclear receptor subfamily 0 group B member 1 (protein, UniProt Q61066 1-472) MAGEDHPWQGSILYNLLMSAKQKHASQEEREVRLGAQCWGCACGAQPVLGGERLSGGQARSLLYRCCFCGENHPRQGGILYSMLTNARQPSVATQAPRARFGAPCWGCACGSAEPLVGREGLPAGQAPSLLYRCCFCGEEHPRQGSILYSLLTSAQQTHVSREAPEAHRRGEWWQLSYCTQSVGGPEGLQSTQAMAFLYRSYVCGEEQPQQISVASGTPVSADQTPATPQEQPRAPWWDASPGVQRLITLKDPQVVCEAASAGLLKTLRFVKYLPCFQILPLDQQLVLVRSCWAPLLMLELAQDHLHFEMMEIPETNTTQEMLTTRRQETEGPEPAEPQATEQPQMVSAEAGHLLPAAAVQAIKSFFFKCWSLNIDTKEYAYLKGTVLFNPDLPGLQCVKYIEGLQWRTQQILTEHIRMMQREYQIRSAELNSALFLLRFINSDVVTELFFRPIIGAVSMDDMMLEMLCAKL

From article PMC4525203
